The test system of the series is zebrafish larvae. Put plainly: Single toxicity of chlorpyrifos and butachlor to zebrafish larvae. Type of series: in vivo. The method, then: H. Data processing: Calculating the LC50 value of pesticides on larvae and their 95% confidence limits by probit analysis based on the number and time of dead fish larvae, and using 95% confidence limit of LC50 as the criterion to determine whether the toxicity difference of different pesticides is significant, LC50≤0.1 mg a.i. L^−1, is hypertoxic; 0.1<LC50≤1.0 mg a.i. L^−1, is high toxicity; 1.0<LC50≤[…] a.i. L^−1, is medium toxicity; LC50>10.0 mg a.i. L^−1 is low toxicity. The maximum allowable concentration of MPC employs 100 as the protection factor, the formula is: MPC=96 h-LC50/100, to get the maximum allowable concentration of a poison.
H. Data processing: Calculating the LC50 value of pesticides on larvae and their 95% confidence limits by probit analysis based on the number and time of dead fish larvae, and using 95% confidence limit of LC50 as the criterion to determine whether the toxicity difference of different drugs is significant, LC50≤0.1 mg a.i. L^−1, is hypertoxic; 0.1<LC50≤1.0 mg a.i. L^−1, is high toxicity; 1.0<LC50≤10.0 mg a.i. L^−1, is medium toxicity; LC50>10.0 mg a.i. L^−1, is low toxicity, the maximum allowable concentration of MPC employs 100 as the protection factor, the formula is: MPC=96 h-LC50/100, to get the maximum allowable concentration of a poison.
Wherein the larvae in the migratory period in step E refer to fish 120 h after fertilization of eggs, for improving the accuracy of the test.

Structures are written as SMILES.

Slope data for 2 compounds are collected here from patent US20200284781A1, “TEST METHOD OF COMBINED TOXICITY FOR CHLORPYRIFOS AND BUTACHLOR” (priority 2019, published 2020).

In the case of `CCCCOCN(C(=O)CCl)c1c(CC)cccc1CC` [Butachlor, butachlor], the Slope is, setting by setting: (exposure time 24 h) 3.73; (exposure time 48 h) 3.96; (exposure time 72 h) 3.88; (exposure time 96 h) 4.76.
The corresponding values for `CCOP(=S)(OCC)Oc1nc(Cl)c(Cl)cc1Cl` [Chlorpyrifos, chlorpyrifos] are 3.73, 5.39, 5.38 and 4.43.
